In publication doi:10.1101/205914:
Positions count from the first letter of the chain named. Results are given in words; binding and its absence hold for the method and conditions named. Some results given as binding are weak or reduced against the parent protein; the word gives no strength. Tags and fused reporters may be left off the sequences shown.

T1: Scc3-TetR (S. cerevisiae) (UniProt P40541)
T1 sequence: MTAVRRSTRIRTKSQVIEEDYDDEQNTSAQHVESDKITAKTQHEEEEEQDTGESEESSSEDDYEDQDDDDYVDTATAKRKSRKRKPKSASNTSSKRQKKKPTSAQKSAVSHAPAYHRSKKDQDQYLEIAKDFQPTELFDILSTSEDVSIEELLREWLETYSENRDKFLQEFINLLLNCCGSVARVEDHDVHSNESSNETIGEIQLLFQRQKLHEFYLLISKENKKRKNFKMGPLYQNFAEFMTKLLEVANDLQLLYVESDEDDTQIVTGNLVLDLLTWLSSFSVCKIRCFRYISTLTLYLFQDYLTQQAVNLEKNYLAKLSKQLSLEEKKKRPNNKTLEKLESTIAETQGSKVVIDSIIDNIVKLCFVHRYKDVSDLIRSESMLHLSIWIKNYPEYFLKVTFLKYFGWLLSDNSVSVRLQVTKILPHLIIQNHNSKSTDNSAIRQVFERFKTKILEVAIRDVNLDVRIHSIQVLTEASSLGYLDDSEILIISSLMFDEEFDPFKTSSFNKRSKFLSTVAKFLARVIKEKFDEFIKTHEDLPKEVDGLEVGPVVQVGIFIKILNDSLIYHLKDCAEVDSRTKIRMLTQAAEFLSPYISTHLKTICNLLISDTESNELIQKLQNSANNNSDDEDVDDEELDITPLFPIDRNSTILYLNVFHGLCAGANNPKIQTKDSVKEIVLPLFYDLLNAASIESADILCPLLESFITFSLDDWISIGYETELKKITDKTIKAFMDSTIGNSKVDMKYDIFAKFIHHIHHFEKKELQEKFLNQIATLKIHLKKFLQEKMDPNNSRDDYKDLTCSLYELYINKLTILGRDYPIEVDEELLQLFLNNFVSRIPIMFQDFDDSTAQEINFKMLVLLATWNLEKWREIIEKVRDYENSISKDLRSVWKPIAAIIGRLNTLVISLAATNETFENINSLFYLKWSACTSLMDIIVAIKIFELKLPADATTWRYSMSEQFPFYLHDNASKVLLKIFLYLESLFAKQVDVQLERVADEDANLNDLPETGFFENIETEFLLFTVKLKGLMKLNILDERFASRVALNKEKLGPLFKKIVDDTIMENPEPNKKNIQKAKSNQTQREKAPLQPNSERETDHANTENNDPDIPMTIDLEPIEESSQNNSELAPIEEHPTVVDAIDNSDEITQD

B1: PK6-tagged Smc3 (protein, UniProt P47037 1-1230)
chain: MYIKRVIIKGFKTYRNETIIDNFSPHQNVIIGSNGSGKSNFFAAIRFVLSDDYSNLKREERQGLIHQGSGGSVMSASVEIVFHDPDHSMILPSGVLSRGDDEVTIRRTVGLKKDDYQLNDRNVTKGDIVRMLETAGFSMNNPYNIVPQGKIVALTNAKDKERLQLLEDVVGAKSFEVKLKASLKKMEETEQKKIQINKEMGELNSKLSEMEQERKELEKYNELERNRKIYQFTLYDRELNEVINQMERLDGDYNNTVYSSEQYIQELDKREDMIDQVSKKLSSIEASLKIKNATDLQQAKLRESEISQKLTNVNVKIKDVQQQIESNEEQRNLDSATLKEIKSIIEQRKQKLSKILPRYQELTKEEAMYKLQLASLQQKQRDLILKKGEYARFKSKDERDTWIHSEIEELKSSIQNLNELESQLQMDRTSLRKQYSAIDEEIEELIDSINGPDTKGQLEDFDSELIHLKQKLSESLDTRKELWRKEQKLQTVLETLLSDVNQNQRNVNETMSRSLANGIINVKEITEKLKISPESVFGTLGELIKVNDKYKTCAEVIGGNSLFHIVVDTEETATLIMNELYRMKGGRVTFIPLNRLSLDSDVKFPSNTTTQIQFTPLIKKIKYEPRFEKAVKHVFGKTIVVKDLGQGLKLAKKHKLNAITLDGDRADKRGVLTGGYLDQHKRTRLESLKNLNESRSQHKKILEELDFVRNELNDIDTKIDQVNGNIRKVSNDRESVLTNIEVYRTSLNTKKNEKLILEESLNAIILKLEKLNTNRTFAQEKLNTFENDLLQEFDSELSKEEKERLESLTKEISAAHNKLNITSDALEGITTTIDSLNAELESKLIPQENDLESKMSEVGDAFIFGLQDELKELQLEKESVEKQHENAVLELGTVQREIESLIAEETNNKKLLEKANNQQRLLLKKLDNFQKSVEKTMIKKTTLVTRREELQQRIREIGLLPEDALVNDFSDITSDQLLQRLNDMNTEISGLKNVNKRAFENFKKFNERRKDLAERASELDESKDSIQDLIVKLKQQKVNAVDSTFQKVSENFEAVFERLVPRGTAKLIIHRKNDNANDHDESIDVDMDAESNESQNGKDSEIMYTGVSISVSFNSKQNEQLHVEQLSGGQKTVCAIALILAIQMVDPASFYLFDEIDAALDKQYRTAVATLLKELSKNAQFICTTFRTDMLQVADKFFRVKYENKISTVIEVNREEAIGFIRGSNKFAEV
B2: PK6-tagged Smc3E1155Q (protein, UniProt P47037 1-1230)
chain: B1 chain with E1155Q
B3: PK6-tagged Smc3K38I (protein, UniProt P47037 1-1230)
chain: B1 chain with K38I

biological target: T1, Scc3-TetR (S. cerevisiae); test: tethering to Tet operators, read by calibrated ChIP-qPCR

binding, binds:
B1
B2
B3
